Out of some 400,000 compounds screened, about 13,000 (3.2%) were called active. Inconclusive results, whose numbers are uncertain, are shown with a selection of clear calls. The call rests on the fitted dose curve; in most records, active means well fitted cell-killing curve with a large enough effect; inconclusive means small, poorly fitted or top-dose-only effect, or effect the other way; inactive means flat fitted curve, though single readings scatter. A potency beside an inconclusive call is a rough fit, not a confirmed value.
Experiment: qHTS assay for MDR1-selective chemotherapeutics: Primary screen using the drug-selected MDR subline cells KB-V1; further: nearly all actives have a fitted effect of over 60% in size
Details: KB-V1 MDR cells viability, CellTiter-Glo, 72 h; activity change, negative = cytotoxicity: at 46.1 µM (top of the series)
How it was run: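 Cells of the MDR subline KB-V1 are plated, dosed with compound at multiple concentrations, and incubated 72 h at 37 degrees C; CellTiter-Glo is then added and luminescence read after 10 min.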
On the % scale 0 is the no-effect control and ±100 the full control effect; potency means the concentration at half of the fitted maximal effect.

Row | Compound | activity change, negative = cytotoxicity | Potency
1 | CCN(c1ccccc1)S(=O)(=O)c1ccc(Cl)c(C(=O)NC2CCN(Cc3ccccc3)CC2)c1 | inactive: 4.89% | 
2 | O=C(Nc1cccc(C(=O)N2CCN(c3cccc(Cl)c3)CC2)c1)c1nsc2ccccc12 | inactive: -14.4% | 
3 | CCOC(=O)CC(NC(=O)C(CC)c1ccccc1)c1ccccc1Cl (configuration not stated) |  | inconclusive: 5.8 µM [cytotoxic, full curve]
4 | O=C(Nc1cccc(C(=O)O)c1)/C(=C\c1ccccc1)NC(=O)c1ccco1 |  | inconclusive: 14.6 µM [rising, partial curve, poor fit]
5 | CCCCCCCCNC(=O)/C(C#N)=C/c1ccc(SC)cc1 |  | active: 20.6 µM
6 | CCOC(=O)N1CCC(NC(=O)c2ccc3c(c2)N(Cc2ccc(F)cc2)CCS3)CC1 |  | inconclusive: 23.1 µM [cytotoxic, single point]
7 | COc1ccc(CN2CCN(CCCCOc3ccc(Cl)cc3)CC2)c(OC)c1OC |  | inconclusive: 16.4 µM [cytotoxic, single point]
8 | COc1cc(OC)c(NC(=O)c2nn(-c3ccc(C)cc3)c(=O)c3c2c2ccccc2n3C)cc1Cl | inactive: 11.7% | 
9 | CSc1ccc(Cn2c(C)c(C(=O)NCc3ccc(C(C)C)cc3)sc2=O)cc1 |  | active: 16.4 µM
10 | O=C(CSc1nncc2ccccc12)Nc1ccccc1 |  | inconclusive: 0.259 µM [rising, full curve]
11 | Cc1ocnc1C(=O)Nc1ccc(Cl)cc1 |  | inconclusive: 16.4 µM [cytotoxic, single point]
12 | COc1ccc(CCNC(=O)c2cc3c(=O)n4ccccc4nc3n(C3CCCCC3)c2=N)cc1OC |  | inconclusive: 16.4 µM [cytotoxic, single point]
13 | O=C(Nc1ccc(Cl)c(Cl)c1)Nc1ccc(N2CCCC2)c(S(=O)(=O)Nc2ccccc2Cl)c1 |  | active: 23.1 µM
14 | CCOc1ccc(C2c3c(oc4ccc(C)cc4c3=O)C(=O)N2CCCN(C)C)cc1 (configuration not stated) |  | inconclusive: 18.4 µM [rising, single point]
15 | O=C(Cc1ccc(Cl)c(Cl)c1)Nc1cccc(S(=O)(=O)N2CCOCC2)c1 |  | inconclusive: 25.9 µM [cytotoxic, single point]
16 | Cc1c(C)c2cc(Cl)c(O)c(CN3CCCC(C)C3)c2oc1=O (configuration not stated) |  | inconclusive: 9.2 µM [cytotoxic, partial curve]
17 | CN1CCN(C=NC2=NN(c3cccc(C(F)(F)F)c3)CC2)CC1 |  | active: 10.3 µM
18 | CC(=O)c1cc2c(cc1NC(=O)C1CC1)OCO2 | inactive: 1.13% | 
19 | O=C(C1CCC1)N1CCc2cc(S(=O)(=O)NCc3ccccn3)ccc21 |  | inconclusive: 18.4 µM [cytotoxic, partial curve]
20 | COc1ccc(OC)c(C2C3=C(CCCC3=O)Nc3nnnn32)c1 (configuration not stated) |  | inconclusive: 9.2 µM [rising, partial curve, poor fit]
21 | Nc1nc(-c2ccccn2)nc(N)c1Cc1c(F)cccc1Cl |  | inconclusive: 20.6 µM [cytotoxic, partial curve, poor fit]

Row | Compound | activity change, negative = cytotoxicity | Potency
22 | Cc1ccc(Cl)cc1N1CCN(C(=O)CCCn2c(=O)[nH]c3ccc(Br)cc3c2=O)CC1 |  | inconclusive: 29.1 µM [cytotoxic, single point]
23 | COc1ccc(N2CCN(C(=O)C(Cc3ccccc3)NC(=O)c3ccccc3)CC2)cc1 (configuration not stated) |  | inconclusive: 0.731 µM [cytotoxic, full curve, poor fit]
24 | Cc1ccc(NC(=O)c2cc(C)nc3ccccc23)c(Br)c1 |  | inconclusive: 14.6 µM [cytotoxic, partial curve]
25 | Nc1c(C(=O)Nc2ccc3c(c2)OCCO3)nnn1CCc1ccccc1 |  | inconclusive: 0.0184 µM [cytotoxic, full curve, poor fit]
26 | CCc1nc(SCC(=O)N2CCN(c3ccccc3)CC2)c2oc3ccccc3c2n1 |  | active: 13 µM
27 | Cc1[nH]c2ccc3ncccc3c2c1C |  | inconclusive: 29.1 µM [cytotoxic, single point]
28 | O=C(Nc1ccccc1)Nc1snnc1C(=O)Nc1cccc(O)c1 |  | inconclusive: 29.1 µM [rising, single point]
29 | COc1ccc(C(C)(O)c2nc(-c3cc(F)cc(F)c3)cs2)cc1 (configuration not stated) |  | inconclusive: 20.6 µM [cytotoxic, partial curve]
30 | CCOc1ccccc1NC(=O)c1c(Br)cnn1C |  | inconclusive: 18.4 µM [cytotoxic, single point]
31 | Cc1c(C(=O)NC2CCCc3ccccc32)oc2ccccc12 (configuration not stated) |  | inconclusive: 25.9 µM [cytotoxic, single point]
32 | COc1ccccc1C1=NN(C(=S)Nc2ccccc2)C(c2ccco2)C1 (configuration not stated) |  | active: 14.6 µM
33 | COc1ccccc1NS(=O)(=O)c1cccc(N=C2N=C(N)c3ccccc32)c1 | inactive: 4.62% | 
34 | Cc1cc(N)n(-c2nc(-c3cccnc3)nc3ccccc23)n1 |  | inconclusive: 14.6 µM [cytotoxic, partial curve, poor fit]
35 | CC(C)Oc1cccc(C2CC(=O)Nc3cc4c(cc32)OCO4)c1 (configuration not stated) |  | inconclusive: 2.59 µM [cytotoxic, full curve, poor fit]
36 | Cc1ccc(NS(=O)(=O)c2cc(NC(=O)c3cc4c(s3)CCCC4)ccc2C)c(C)c1 |  | active: 3.66 µM
37 | O=C(CCn1cnnn1)Nc1cc(C(F)(F)F)cc(C(F)(F)F)c1 |  | inconclusive: 18.4 µM [cytotoxic, single point]
38 | CCN(CC)S(=O)(=O)c1ccc2c(c1)c(=O)c(C(=O)NCc1cccs1)cn2C |  | active: 6.51 µM
39 | Cc1ccccc1-n1cc(CNCc2c(C(=O)N(C)C)nc3ccc(Cl)cn23)cn1 |  | inconclusive: 3.66 µM [cytotoxic, partial curve, poor fit]
40 | CCCn1c(=O)c2c(C(F)(F)F)cc(-c3cccs3)nc2n(CCC)c1=O |  | inconclusive: 4.61 µM [cytotoxic, partial curve]
41 | CC1Cc2ccccc2N1C(=O)CSc1nc2c(c(=O)n(C)c(=O)n2C)n1Cc1ccccc1 (configuration not stated) |  | inconclusive: 25.9 µM [cytotoxic, partial curve, poor fit]
42 | CC(=O)c1ccc(O)c(CC=C(C)C)c1 |  | inconclusive: 32.6 µM [rising, partial curve, poor fit]

Records 32–34 of the list above:
Row | Compound | activity change, negative = cytotoxicity | Potency
32 | COc1ccccc1C1=NN(C(=S)Nc2ccccc2)C(c2ccco2)C1 (configuration not stated) |  | active: 14.6 µM
33 | COc1ccccc1NS(=O)(=O)c1cccc(N=C2N=C(N)c3ccccc32)c1 | inactive: 4.62% | 
34 | Cc1cc(N)n(-c2nc(-c3cccnc3)nc3ccccc23)n1 |  | inconclusive: 14.6 µM [cytotoxic, partial curve, poor fit]
